Laboratory results from patent publication US20220280526A1, “AGENT FOR THE TREATMENT OF PSORIASIS” (EBERHARD KARLS UNIVERSITAET TUEBINGEN MEDIZINISCHE FAKULTAET, priority 2019, published 2022).
Entries after “also recorded” stand apart in the source; their conditions may differ. For at least one compound, name, drawing or mass did not settle the structure.

Assays:
IκBζ (NFKBIZ) expression = experiment: IκBζ expression in cytokine-stimulated primary human keratinocytes (immunoblot, qPCR); assay type: cell-based
NFKBIZ (IκBζ) promoter = experiment: Luciferase assay of NFKBIZ promoter activity in HaCaT cells; assay type: cell-based; details: IL-36α-stimulated HaCaT cells, 24 h
Protocol: Luciferase constructs were generated as described; Muller et al. (2018; loc. Cit.). 1*10^4 HEK293T cells were transfected for 24 h using HBS buffer and CaCl2 and a mixture of 400 ng luciferase vector and 100 ng TK-Renilla vector. For expression of other factors, the following concentrations were used: 70 ng p65, 200 ng cJUN, STAT3 or EZH2 constructs and 500 ng CDK4, CDK6 or cyclin D expression constructs (not shown). For transfection of HaCaT cells, 3*10^5 cells were transfected for 4 h using Lipofectamine 3000 and a mixture of 800 ng luciferase vector, 200 ng TK-Renilla vector and 4 μg expression or control plasmids according to the manufacturer's instructions (Thermo Fisher). 36 h after transfection, luciferase activity was measured with the Dual Luciferase Reporter Assay Kit (Promega). Expression of the reporter constructs was calculated as the fold induction over unstimulated transfected cells from data of three independent experiments.

[1] = system: IκBζ-dependent target genes; experiment: Gene expression analysis by qPCR in stimulated keratinocytes; assay type: cell-based, human; details: IL-36α-treated keratinocytes, EZH2 inhibition
STAT3 = STAT3 phosphorylation in primary human keratinocytes (immunoblot); assay type: cell-based; details: IL-36α- or IL-17A/TNFα-stimulated keratinocytes; EPZ6438 10 μM
Source text: HaCaT cells were maintained in DMEM with 10% FCS and antibiotics. Human primary keratinocytes were freshly isolated from foreskin and maintained in CnT-07S medium with gentamycin (CELLnTEC). Recombinant human IL-36α (aa 6-158) and mouse IL-36α (aa 6-160) were purchased from R&D Systems. Recombinant IL-17A (11340174), TNFα (11343013) and IL-1β (11340013) were ordered from Immunotools. Flagellin (vac-fla) and poly I:C (vac-pic) were purchased from Invivogen. In cell culture experiments, the cytokines were used at the following concentrations, as described previously: IL-36α (100 ng/mL), IL-17A (200 ng/mL), TNFα (10 ng/mL) and IL-1β (100 ng/mL). Flagellin was applied at 10 ng/mL and poly(I:C) was added at a final concentration of 100 ng/mL. […] When indicated, cells were starved for 2 h prior to cytokine treatment, by removing cell culture supplements from the growth medium.
Western blot analysis was performed as described before. […]

For `CC(=O)c1c(C)c2cnc(Nc3ccc(N4CCNCC4)cn3)nc2n(C2CCCC2)c1=O` [palbociclib, Palbociclib isethionate], the “IL-36α- or IL-17A/TNFα-mediated induction of IκBζ expression” value (IκBζ (NFKBIZ) expression; primary human keratinocytes, 1 h cytokine, abemaciclib 16 μM, palbociclib 50 μM) was “completely blocked; also recorded: abolished” and the “expression of luciferase construct harboring the NFKBIZ (IκBζ) promoter” value (NFKBIZ (IκBζ) promoter) was “abrogated”.

In the case of `CCN(c1cc(-c2ccc(CN3CCOCC3)cc2)cc(C(=O)NCc2c(C)cc(C)[nH]c2=O)c1C)C1CCOCC1` [EPZ6438, tazemetostat], the “induction of IκBζ” value (IκBζ (NFKBIZ) expression; IL-36α- or IL-17A/TNFα-stimulated keratinocytes, EPZ6438 10 μM) is reported as “inhibited”, the “IκBζ-dependent target gene expression” value [1] is reported as “effectively prevented” and the “STAT3 activation (pSTAT3 Y705)” value (STAT3) is reported as “inhibited”.
